Laboratory results from PubChem BioAssay AID924 (National Center for Advancing Translational Sciences (NCATS), 2007).
Shown are results outside the selection of hits, which stands elsewhere. Inconclusive results are not listed. Activity calls are given as the source filed them. The call rests on the fitted dose curve; in most records, active means well fitted cell-killing curve with a large enough effect; inconclusive means small, poorly fitted or top-dose-only effect; inactive means no such curve, though single readings can be large or run the other way.

Assay: qHTS Screen for Compounds that Selectively Target Cancer Cells with p53 Mutations: Cytotoxicity of p53ts Cells at the Permissive Temperature;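 further: 0% = DMSO and -100% = full killing by reference compound; nearly all actives have a fitted effect of over 55% in size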
Conditions: H1299-p53A138V at 32C, ATP luminescence viability, 24 h; at 46.1 µM (top of the series) unless noted
Excerpt: NIH Chemical Genomics Center [NCGC] NIH Molecular Libraries Screening Centers Network [MLSCN] MLSCN Grant: 1 X01 MH079844-01 Assay Submitter (PI): Dr. SUN, YI, University of Michigan NCGC Assay Overview: Synthetic Lethal Screen for Compounds to Kill Cancer Cells with p53 Mutation. Tumor suppressor gene p53 serves as a major cellular barrier against tumorigenesis. […] The goal of this screening is to identify small molecule probes that selectively kill cancer cells with mutations in p53. This screening was carried out using two lines of H1299 lung cancer cells. […] Concentration-responses of all the compounds in the library collection were determined in qHTS using the cell lines and temperature conditions as above.
NCGC Assay Protocol Summary: Both the H1299-p53A138V and H1299-neo cell lines were provided by Dr.Yi Sun, a PI at the University Michigan. […] AC50 values were determined from concentration-response data modeled with the standard Hill equation. […] Detection; Luminescence; Viewlux plate reader Keywords: p53, synthetic lethal, cancer, cell viability, cytotoxicity, H1299 cell line, luminescence, MLSMR, MLSCN, NIH Roadmap, qHTS, NCGC

Row | Structure (SMILES) | activity change, negative = cytotoxicity
1 | Nc1nc2ccc(OC(F)(F)F)cc2s1 | inactive: -19.8% [at 20.6 µM]
2 | CCOC(=O)c1ccc(NC(=O)CSc2nc3c(c(=O)n2CC)SC(C)C3)cc1 (configuration not stated) | inactive: 48.9%
